Source: paper PMC9010301
These are yes or no findings as the source states them, for the method shown. A result given as binding can be weak or reduced; the word gives no strength.

Chains of the proteins cited; added tags and fusions are not shown. Lines headed by an entry give the natural chain unless they say otherwise; changes in a name come on top.
UniProt Q02574: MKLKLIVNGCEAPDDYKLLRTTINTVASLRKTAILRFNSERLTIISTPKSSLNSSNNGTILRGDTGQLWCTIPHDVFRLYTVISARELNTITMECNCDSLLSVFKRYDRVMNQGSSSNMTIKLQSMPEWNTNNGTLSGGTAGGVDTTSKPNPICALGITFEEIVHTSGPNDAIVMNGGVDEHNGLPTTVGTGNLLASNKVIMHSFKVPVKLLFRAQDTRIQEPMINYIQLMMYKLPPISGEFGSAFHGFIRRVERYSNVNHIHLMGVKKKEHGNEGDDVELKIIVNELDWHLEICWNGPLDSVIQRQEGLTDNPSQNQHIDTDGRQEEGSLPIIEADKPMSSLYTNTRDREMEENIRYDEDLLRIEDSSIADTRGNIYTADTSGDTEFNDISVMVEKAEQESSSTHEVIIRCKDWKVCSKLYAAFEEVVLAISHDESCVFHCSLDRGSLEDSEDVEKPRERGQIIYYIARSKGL

Key:
Assay in all cases: cryo-EM structure; purified Rad24-RFC 1.8 μM, 9–1-1 clamp 2.2 μM, double tailed DNA (5′- and 3′-recessed junctions) 2.7 μM, 0.5 mM ATPγS, 5 mM MgAcetate; ice-water bath 30 min; two conformations (clamp closed, clamp open) at 3.2 Å; both purified
[1] = target: T1, Ddc1 (subunit of the S.c. 9–1-1 clamp) (S. cerevisiae) (UniProt Q08949)
T1 sequence: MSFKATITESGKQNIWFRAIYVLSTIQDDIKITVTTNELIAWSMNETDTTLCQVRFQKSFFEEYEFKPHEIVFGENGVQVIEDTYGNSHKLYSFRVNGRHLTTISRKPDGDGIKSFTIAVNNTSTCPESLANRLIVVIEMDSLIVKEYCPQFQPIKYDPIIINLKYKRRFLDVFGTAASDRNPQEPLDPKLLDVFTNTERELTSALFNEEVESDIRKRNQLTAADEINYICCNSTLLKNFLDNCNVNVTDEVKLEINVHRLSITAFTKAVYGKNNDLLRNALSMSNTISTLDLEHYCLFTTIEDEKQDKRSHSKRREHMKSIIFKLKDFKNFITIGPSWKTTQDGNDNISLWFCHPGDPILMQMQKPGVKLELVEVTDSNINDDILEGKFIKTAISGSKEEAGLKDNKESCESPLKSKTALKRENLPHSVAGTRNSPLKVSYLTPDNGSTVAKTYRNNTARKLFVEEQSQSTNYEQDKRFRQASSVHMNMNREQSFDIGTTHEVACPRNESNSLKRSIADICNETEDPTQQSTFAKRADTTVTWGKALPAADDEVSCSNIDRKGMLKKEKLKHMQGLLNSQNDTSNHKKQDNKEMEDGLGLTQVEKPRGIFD

[2] = target: T2, Rad17 (subunit of the S.c. 9–1-1 clamp) (S. cerevisiae) (UniProt P48581)
T2 sequence: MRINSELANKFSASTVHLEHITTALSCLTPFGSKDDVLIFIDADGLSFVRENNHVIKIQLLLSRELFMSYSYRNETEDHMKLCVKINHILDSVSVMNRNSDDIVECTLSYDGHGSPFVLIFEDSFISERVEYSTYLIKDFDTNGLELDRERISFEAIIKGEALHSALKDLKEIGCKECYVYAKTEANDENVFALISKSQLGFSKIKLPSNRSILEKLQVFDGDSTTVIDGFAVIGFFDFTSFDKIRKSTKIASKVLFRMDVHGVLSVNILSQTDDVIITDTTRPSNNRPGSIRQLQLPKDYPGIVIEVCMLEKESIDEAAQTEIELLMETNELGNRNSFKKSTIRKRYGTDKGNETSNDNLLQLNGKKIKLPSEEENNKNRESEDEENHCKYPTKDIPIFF

[3] = target: S.c. 9–1-1 DNA checkpoint clamp (Ddc1–Mec3–Rad17) (S. cerevisiae)

With “His-PK-Mec3 (subunit of the S.c. 9–1-1 clamp) (from UniProt Q02574)” as the molecule, how does the binding [1] read?
Its binding is “binds”.

What about the binding [2] of the same molecule?
Its binding is “binds”.

B1: Rfc5 (subunit of S.c. Rad24-RFC) (protein, UniProt P38251 1-354)
chain: MSLWVDKYRPKSLNALSHNEELTNFLKSLSDQPRDLPHLLLYGPNGTGKKTRCMALLESIFGPGVYRLKIDVRQFVTASNRKLELNVVSSPYHLEITPSDMGNNDRIVIQELLKEVAQMEQVDFQDSKDGLAHRYKCVIINEANSLTKDAQAALRRTMEKYSKNIRLIMVCDSMSPIIAPIKSRCLLIRCPAPSDSEISTILSDVVTNERIQLETKDILKRIAQASNGNLRVSLLMLESMALNNELALKSSSPIIKPDWIIVIHKLTRKIVKERSVNSLIECRAVLYDLLAHCIPANIILKELTFSLLDVETLNTTNKSSIIEYSSVFDERLSLGNKAIFHLEGFIAKVMCCLD
How did the binding [3] turn out when B1 was run?
The binding was “binds”.

B2: Rad24 (subunit of S.c. Rad24-RFC) (protein, UniProt P32641 1-659)
chain: MDSTNLNKRPLLQYSLSSLGSQITKWSSSRPTSPVRKARSTENDFLSKQDTSSILPSINDDGGEQWYEKFKPNCLEQVAIHKRKLKDVQEALDAMFLPNAKHRILLLSGPSGCSKSTVIKELSKILVPKYRQNSNGTSFRSTPNEHKVTEFRGDCIVNDLPQMESFSEFLKGARYLVMSNLSLILIEDLPNVFHIDTRRRFQQLILQWLYSSEPLLPPLVICITECEIPENDNNYRKFGIDYTFSAETIMNKEILMHPRLKRIKFNPINSTLLKKHLKFICVQNMKMLKEKNKWNKRQEVIDYIAQETGDIRSAITTLQFWATSSGSLPISTRESTISYFHAIGKVIHGSHSTNNDNEMINNLFENSNNLLSKEDFKLGILENYNTFNKGEFSISDASSIVDCLSECDNMNGLPESNEYGLREVRKTFRNISKQGHNHGTVYFPREWKVRKLQNSFKVQAEDWLNVSLYKYNAVHSFRNITLEFGYYAPLIRKCQSYKKKYILYYLKNLPSGSSGPKQTMDKFSDIMKVENGIDVVDRIGGPIEALSVEDGLAPLMDNDSNNCDHLEDQKKERDRRLRMLIDQYERNVMMANDDLEDEETSFNDDPIVDSDSDNSNNIGNETFGRSDEDESLCEILSQRQPRKAPVISESLSDSDLEIL
For B2, which binding [3] is on record?
The binding was “binds”.

B3: Rfc2 (subunit of S.c. Rad24-RFC) (protein, UniProt P40348 1-353)
chain: MFEGFGPNKKRKISKLAAEQSLAQQPWVEKYRPKNLDEVTAQDHAVTVLKKTLKSANLPHMLFYGPPGTGKTSTILALTKELYGPDLMKSRILELNASDERGISIVREKVKNFARLTVSKPSKHDLENYPCPPYKIIILDEADSMTADAQSALRRTMETYSGVTRFCLICNYVTRIIDPLASRCSKFRFKALDASNAIDRLRFISEQENVKCDDGVLERILDISAGDLRRGITLLQSASKGAQYLGDGKNITSTQVEELAGVVPHDILIEIVEKVKSGDFDEIKKYVNTFMKSGWSAASVVNQLHEYYITNDNFDTNFKNQISWLLFTTDSRLNNGTNEHIQLLNLLVKISQL
Which binding [3] does the source give for B3 here?
Its binding is “binds”.

B4: Rfc3 (subunit of S.c. Rad24-RFC) (protein, UniProt P38629 1-340)
chain: MSTSTEKRSKENLPWVEKYRPETLDEVYGQNEVITTVRKFVDEGKLPHLLFYGPPGTGKTSTIVALAREIYGKNYSNMVLELNASDDRGIDVVRNQIKDFASTRQIFSKGFKLIILDEADAMTNAAQNALRRVIERYTKNTRFCVLANYAHKLTPALLSRCTRFRFQPLPQEAIERRIANVLVHEKLKLSPNAEKALIELSNGDMRRVLNVLQSCKATLDNPDEDEISDDVIYECCGAPRPSDLKAVLKSILEDDWGTAHYTLNKVRSAKGLALIDLIEGIVKILEDYELQNEETRVHLLTKLADIEYSISKGGNDQIQGSAVIGAIKASFENETVKANV
Which binding [3] does the source give for B4 here?
The binding was “binds”.

B5: Rfc4 (subunit of S.c. Rad24-RFC) (protein, UniProt P40339 1-323)
chain: MSKTLSLQLPWVEKYRPQVLSDIVGNKETIDRLQQIAKDGNMPHMIISGMPGIGKTTSVHCLAHELLGRSYADGVLELNASDDRGIDVVRNQIKHFAQKKLHLPPGKHKIVILDEADSMTAGAQQALRRTMELYSNSTRFAFACNQSNKIIEPLQSRCAILRYSKLSDEDVLKRLLQIIKLEDVKYTNDGLEAIIFTAEGDMRQAINNLQSTVAGHGLVNADNVFKIVDSPHPLIVKKMLLASNLEDSIQILRTDLWKKGYSSIDIVTTSFRVTKNLAQVKESVRLEMIKEIGLTHMRILEGVGTYLQLASMLAKIHKLNNKA
For B5, which binding [3] is on record?
The binding was “binds”.
